Assay results: PMC11519790
Where two headings read alike, the source gives them in different places. No constants are given. Whether binding was seen depends on the method and setting. In cells and extracts the contact can be indirect. Some results given as binding are weak or reduced against the parent protein; the word gives no strength.

Chains of the proteins cited; added tags and fusions are not shown.
UniProt Q14790: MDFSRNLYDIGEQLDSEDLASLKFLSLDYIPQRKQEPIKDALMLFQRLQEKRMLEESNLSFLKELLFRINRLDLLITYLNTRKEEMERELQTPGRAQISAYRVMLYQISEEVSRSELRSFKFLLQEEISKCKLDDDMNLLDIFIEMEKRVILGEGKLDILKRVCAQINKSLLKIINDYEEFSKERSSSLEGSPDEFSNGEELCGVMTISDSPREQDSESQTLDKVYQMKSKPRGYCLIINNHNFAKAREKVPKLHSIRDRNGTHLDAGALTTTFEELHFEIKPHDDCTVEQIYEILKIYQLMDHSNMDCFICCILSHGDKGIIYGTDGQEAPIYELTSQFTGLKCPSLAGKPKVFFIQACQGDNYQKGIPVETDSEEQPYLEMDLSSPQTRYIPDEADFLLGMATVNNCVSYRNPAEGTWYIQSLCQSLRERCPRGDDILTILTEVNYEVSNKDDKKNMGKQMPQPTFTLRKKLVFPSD
UniProt Q13546: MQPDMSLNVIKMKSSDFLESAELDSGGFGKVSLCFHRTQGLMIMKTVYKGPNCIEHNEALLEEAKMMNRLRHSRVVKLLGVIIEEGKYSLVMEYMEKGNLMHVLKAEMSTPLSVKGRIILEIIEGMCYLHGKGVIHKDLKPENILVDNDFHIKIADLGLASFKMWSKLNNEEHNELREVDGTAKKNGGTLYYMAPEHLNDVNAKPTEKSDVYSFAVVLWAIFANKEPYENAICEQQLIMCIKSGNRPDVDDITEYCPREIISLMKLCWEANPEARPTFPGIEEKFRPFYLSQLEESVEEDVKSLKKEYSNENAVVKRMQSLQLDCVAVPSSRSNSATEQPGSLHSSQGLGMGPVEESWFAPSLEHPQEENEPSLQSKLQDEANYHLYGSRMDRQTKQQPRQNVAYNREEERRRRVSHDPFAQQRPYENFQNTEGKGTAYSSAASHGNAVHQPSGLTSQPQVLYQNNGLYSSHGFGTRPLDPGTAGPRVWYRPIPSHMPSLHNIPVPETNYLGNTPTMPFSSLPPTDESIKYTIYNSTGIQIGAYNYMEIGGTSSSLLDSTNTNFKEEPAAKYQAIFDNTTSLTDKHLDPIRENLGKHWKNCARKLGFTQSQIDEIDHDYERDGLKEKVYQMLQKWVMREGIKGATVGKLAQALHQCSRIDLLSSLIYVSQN

How the values were obtained:
[1] = target: T1, Pyrin (human (endogenous in MHCC97-H)) (UniProt O15553); test: co-IP; endogenous proteins of LV-veh and LV-D (DNASE1L3-overexpressing) MHCC97-H HCC cells, with or without sorafenib (20 uM, 24 h); also done in LV-R206C cells (interaction markedly reduced) and ShAIM2 cells (complex formation diminished); precipitating antibody not told in the text shown
T1 sequence: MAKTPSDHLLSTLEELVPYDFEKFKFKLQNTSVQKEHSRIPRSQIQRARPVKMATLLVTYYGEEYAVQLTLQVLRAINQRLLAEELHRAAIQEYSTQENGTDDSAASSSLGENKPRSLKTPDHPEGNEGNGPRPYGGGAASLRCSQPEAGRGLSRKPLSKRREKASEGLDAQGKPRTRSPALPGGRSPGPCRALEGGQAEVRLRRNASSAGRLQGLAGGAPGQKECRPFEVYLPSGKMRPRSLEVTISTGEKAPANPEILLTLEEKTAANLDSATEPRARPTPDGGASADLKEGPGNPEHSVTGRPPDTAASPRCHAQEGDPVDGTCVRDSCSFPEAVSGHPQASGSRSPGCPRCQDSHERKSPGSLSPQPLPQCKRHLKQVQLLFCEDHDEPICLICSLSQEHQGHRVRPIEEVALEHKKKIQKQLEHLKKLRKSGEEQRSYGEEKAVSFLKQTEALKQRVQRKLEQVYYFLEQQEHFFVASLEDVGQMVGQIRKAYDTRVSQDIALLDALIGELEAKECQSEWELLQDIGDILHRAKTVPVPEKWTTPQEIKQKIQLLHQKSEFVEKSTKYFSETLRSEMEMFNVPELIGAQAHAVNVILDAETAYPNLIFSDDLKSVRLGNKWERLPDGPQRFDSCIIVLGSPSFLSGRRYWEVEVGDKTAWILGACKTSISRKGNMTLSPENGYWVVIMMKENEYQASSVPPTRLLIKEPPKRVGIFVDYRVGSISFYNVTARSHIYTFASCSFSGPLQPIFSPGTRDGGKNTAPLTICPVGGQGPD

[2] = target: T1, Pyrin (human (endogenous in MHCC97-H)); test: as above; remark: listed apart in the source

## caspase-8 (from UniProt Q14790 1-479)
[1]
  binding: binds

## receptor-interacting protein kinase 1 (from UniProt Q13546 1-671)
[1]
  binding: binds

B1: absent in melanoma 2 (protein, UniProt O14862 1-343)
chain: MESKYKEILLLTGLDNITDEELDRFKFFLSDEFNIATGKLHTANRIQVATLMIQNAGAVSAVMKTIRIFQKLNYMLLAKRLQEEKEKVDKQYKSVTKPKPLSQAEMSPAASAAIRNDVAKQRAAPKVSPHVKPEQKQMVAQQESIREGFQKRCLPVMVLKAKKPFTFETQEGKQEMFHATVATEKEFFFVKVFNTLLKDKFIPKRIIIIARYYRHSGFLEVNSASRVLDAESDQKVNVPLNIIRKAGETPKINTLQTQPLGTIVNGLFVVQKVTEKKKNILFDLSDNTGKMEVLGVRNEDTMKCKEGDKVRLTFFTLSKNGEKLQLTSGVHSTIKVIKAKKKT
[2]
  binding: binds
